In paper PMC6239283:
Results are given in words; binding and its absence hold for the method and conditions named. For some assays here: Binding seen in cells or lysates may run through a third protein. Some results given as binding are weak or reduced against the parent protein; the word gives no strength. Sequences can lack the tags named with a protein.

T1: OsTGA5 (BiFC split-YFP fusion) (rice (Oryza sativa)) (UniProt Q0JNL3)
T1 sequence: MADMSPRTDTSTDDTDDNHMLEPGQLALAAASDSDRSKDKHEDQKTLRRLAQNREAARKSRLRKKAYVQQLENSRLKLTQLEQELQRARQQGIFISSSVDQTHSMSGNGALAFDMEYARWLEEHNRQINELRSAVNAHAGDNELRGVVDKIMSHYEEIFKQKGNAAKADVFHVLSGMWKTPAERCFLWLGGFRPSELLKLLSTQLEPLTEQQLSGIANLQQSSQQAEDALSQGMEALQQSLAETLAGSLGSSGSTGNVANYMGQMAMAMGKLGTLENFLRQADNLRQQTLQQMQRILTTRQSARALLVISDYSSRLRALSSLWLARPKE

T2: OsTGA3 (BiFC split-YFP fusion) (rice (Oryza sativa)) (UniProt Q6IVC3)
T2 sequence: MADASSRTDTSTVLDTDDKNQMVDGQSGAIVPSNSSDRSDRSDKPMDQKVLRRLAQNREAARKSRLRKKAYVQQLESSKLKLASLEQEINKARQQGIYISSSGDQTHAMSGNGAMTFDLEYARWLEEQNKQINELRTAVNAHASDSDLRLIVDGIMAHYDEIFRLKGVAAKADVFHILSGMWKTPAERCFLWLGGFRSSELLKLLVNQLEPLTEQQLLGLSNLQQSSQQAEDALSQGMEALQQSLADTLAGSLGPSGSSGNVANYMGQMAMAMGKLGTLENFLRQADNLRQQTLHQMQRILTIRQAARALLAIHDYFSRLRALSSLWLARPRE

T3: OsTGA3 (yeast two-hybrid fusion) (rice (Oryza sativa)) (UniProt Q6IVC3)
T3 sequence: T2 sequence

T4: OsTGA2 (yeast two-hybrid fusion) (rice (Oryza sativa)) (UniProt Q6IVC2)
T4 sequence: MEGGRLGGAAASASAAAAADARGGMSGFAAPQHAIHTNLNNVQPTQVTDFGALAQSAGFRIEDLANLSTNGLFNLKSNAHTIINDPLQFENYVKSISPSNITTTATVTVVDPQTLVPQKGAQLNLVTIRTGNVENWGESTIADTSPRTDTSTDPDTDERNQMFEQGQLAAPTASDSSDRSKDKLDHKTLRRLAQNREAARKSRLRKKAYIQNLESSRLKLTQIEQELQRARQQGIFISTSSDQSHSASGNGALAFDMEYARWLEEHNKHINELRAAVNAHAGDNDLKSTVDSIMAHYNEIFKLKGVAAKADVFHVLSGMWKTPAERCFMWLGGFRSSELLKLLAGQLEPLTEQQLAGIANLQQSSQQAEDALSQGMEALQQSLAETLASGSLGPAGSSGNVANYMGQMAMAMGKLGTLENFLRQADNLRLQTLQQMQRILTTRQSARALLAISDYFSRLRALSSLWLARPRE

T5: OsTGA5 (yeast two-hybrid fusion) (rice (Oryza sativa)) (UniProt Q0JNL3)
T5 sequence: T1 sequence

B1: OsNH3, rice NPR1 homolog 3 (BiFC nYFP fusion) (protein, UniProt Q75HA6 1-589)
chain: METSTISFSSSSPPSPPPPQPAPGDIDAVSLGRLSRNLENLLDPAFLNCADAEIVLASGGGDPGGGAVVGVHRCILAARSRFFYDHFSSAPAPAPATAGDKPQLDLDGLVPGGRHIGRDALVAVLSYLYTGRLRSAPPEAAACLDDGCSHDACRPAIDFVVESTYAASGFQISELVSLFQRRLSDFVNKALAEDILPILVVASTCHLPELLNQCIQRVANSNLDNRYLEKRLPDDLYAKLKEFRVPDEPHSGILDPEHEKRVRNIHKALDSDDVDLVGMLLKESPVTLDDAFAIHYAAAYCEPKVLAELLKLESANVNLKNSSGYTPLHMACMRREPDIIVSLIEKGASVLERTQDGRDALTICKRLTREKDRNEKSEKCKERSKAYLCIGVLQQEIKRRPQILEDQMSAEESIATPLLVDNFHMRLLNLENRVAFARIFFPSEAKLVMRIAQADSTQEFAGLTSANFSKLKEVDLNETPTMQNRRLRERLDALTKTVELGRRYFPHCSEVLDKFLNEESTDLILLESGTAEDQQTKRMRFSELREDVRKAFTKDKAAGAAISSSTSASSSPRYETKLRPGNKKGKLSR
B2: OsNH4, rice NPR1 homolog 4 (BiFC nYFP fusion) (protein, UniProt A2CIR7 1-506)
chain: MEETLKSLSMDYLNLLINGQAFSDVTFSVEGRLVHAHRCILAARSLFFRKFFCGAAADQAAAPPGALLLDHLSPRSPSGGASASSPRGAGGSAAAAAAATPGAVIPVSSVSYEVFLLLLQFLYSGQVSLVPQKGEPRPGCGERGCWHTHCAAAVDLALDTLAAARSFGVEELALLTQKQLAGMVEKASIEDVMKVLMASRKQDLHQLWTTCSHLVAKSGLPPEVLAKHLPIDVVAKIDELRLKSMSRRSPFLSHHHHHPHAAAAGIEASSAAELDDHHKIRRMRRALDSSDVELVKLMVMGEGLNLDDALALHYAVENCSREVVKALLELGAADVNHPAGPAGKTPLHVAAEMVCPDMVAVLLDHHADPNVRTVDGVTPLDILRTLTSDFLFKGAVPGLAHIEPNKLRLCLELVQSAAMVMSREDAQTAAVNAAPIYGESPGGGGGGGVYNASGTSSSMVNLSLDNRMVYLNLGMDAQFGKMNDGGDGDDGGSRGPSSLFSPHGFP
B3: OsTGA5 (BiFC split-YFP fusion) (protein, UniProt Q0JNL3 1-329)
chain: T1 sequence
B4: OsTGA3 (BiFC split-YFP fusion) (protein, UniProt Q6IVC3 1-333)
chain: T2 sequence
B5: OsTGA3 (yeast two-hybrid fusion) (protein, UniProt Q6IVC3 1-333)
chain: T2 sequence
B6: OsNH2, rice NPR1 homolog 2 (yeast two-hybrid fusion) (protein, UniProt Q0JJ01 1-635)
chain: MPARSAVVVIAMEPSSSITIASSSSYLSNGSSPCSVSLAPPGAGAVAAQAAPVAAGEGGGGGGGGGGGGSSSVEVVSLNRLSANLERLLLDSDLDCSDADVDVADGGPPVPVHRCILAARSTFFYNLFAARGRGGDGAAGGGGGGGGGGGERTGGRPRYKMEELVPGGRVGRDAFLSLLGYLYTGKLRPAPDDVVSCADPMCPHDSCPPAIRFNVEQMYAAWAFKITELISLFQRRLLNFVDKTLVEDVLPILQVAFHSELTPVLEKCIRRIARSNLDNVSLDKELPPEVAVQIKEIRQKSQPNEGDTVISDPVHEKRVRRIHRALDSDDVELVKLLLNESEITLDDANALHYAAAYCDSKVVSELLDLRLANLNLKNSRGYTALHLAAMRREPAIIMCLLNKGAAVSQLTADGQSAMSICRRLTRMKDYNTKMEQGQESNKDRLCIDILDREMIRKPMAVEDSVTSPLLADDLHMKLLYLENRVAFARLFFPAEAKVAMQIAQADTTPEFGIVPAASTSGKLKEVDLNETPVTQNKRLRSRVDALMKTVELGRRYFPNCSQVLDKFLEDDLPDSPDALDLQNGTSDEQNVKRMRFCELKEDVRKAFSKDRADNSMFSILSSSSSSSPPPKVAKK
B7: OsNH3, rice NPR1 homolog 3 (yeast two-hybrid fusion) (protein, UniProt Q75HA6 1-589)
chain: B1 chain
B8: OsTGA5 (yeast two-hybrid fusion) (protein, UniProt Q0JNL3 1-329)
chain: T1 sequence
B9: OsNH4, rice NPR1 homolog 4 (yeast two-hybrid fusion) (protein, UniProt A2CIR7 1-506)
chain: B2 chain

The binders below were run against T1, OsTGA5 (BiFC split-YFP fusion) (rice (Oryza sativa)) (assay: split reporter; BiFC in rice protoplasts transfected using PEG; OsTGAs fused to cYFP (and nYFP for dimer tests), NHs fused to nYFP; reconstituted YFP seen by confocal microscopy).

Row | Binder | binding
1 | B1 | binds
2 | B2 | binds weakly
3 | B3 | binds

What follows are binders tested against T2, OsTGA3 (BiFC split-YFP fusion) (rice (Oryza sativa)) in the same assay as above.

Row | Binder | binding
4 | B1 | binds
5 | B2 | binds weakly
6 | B4 | binds
7 | B3 | binds

Each binder was assayed against T3, OsTGA3 (yeast two-hybrid fusion) (rice (Oryza sativa)) (assay: two-hybrid; … Y2H system (Clontech); OsTGAs in pGBKT7 (bait), NHs or OsTGAs in pGADT7 (prey); co-transformed into yeast; growth on SD without leucine, tryptophan and histidine with 1 to 10 mM 3-AT; images on the third day).

Row | Binder | binding
8 | B5 | binds
9 | B6 | binds
10 | B7 | binds
11 | B8 | binds

These binders were tested against T4, OsTGA2 (yeast two-hybrid fusion) (rice (Oryza sativa)) in the same assay as above.

Row | Binder | binding
12 | B6 | binds
13 | B7 | binds

The binders below were run against T5, OsTGA5 (yeast two-hybrid fusion) (rice (Oryza sativa)) in the same assay as above.

Row | Binder | binding
14 | B6 | binds
15 | B7 | binds
16 | B8 | binds
17 | B9 | binds
